Assay results taken from article PMC10245119.
Results are given in words; binding and its absence hold for the method and conditions named. Binding seen in cells or lysates may run through a third protein. Binding calls can cover weak binding; strength is not graded here. For some assays here: Where a sequence is shown, tags or fusion partners need not be part of it.

The chains behind the UniProt entries cited, without tags or fusion partners. Where a name states a change or a piece, a line headed by the entry shows the natural chain unless it says otherwise.
UniProt Q60662: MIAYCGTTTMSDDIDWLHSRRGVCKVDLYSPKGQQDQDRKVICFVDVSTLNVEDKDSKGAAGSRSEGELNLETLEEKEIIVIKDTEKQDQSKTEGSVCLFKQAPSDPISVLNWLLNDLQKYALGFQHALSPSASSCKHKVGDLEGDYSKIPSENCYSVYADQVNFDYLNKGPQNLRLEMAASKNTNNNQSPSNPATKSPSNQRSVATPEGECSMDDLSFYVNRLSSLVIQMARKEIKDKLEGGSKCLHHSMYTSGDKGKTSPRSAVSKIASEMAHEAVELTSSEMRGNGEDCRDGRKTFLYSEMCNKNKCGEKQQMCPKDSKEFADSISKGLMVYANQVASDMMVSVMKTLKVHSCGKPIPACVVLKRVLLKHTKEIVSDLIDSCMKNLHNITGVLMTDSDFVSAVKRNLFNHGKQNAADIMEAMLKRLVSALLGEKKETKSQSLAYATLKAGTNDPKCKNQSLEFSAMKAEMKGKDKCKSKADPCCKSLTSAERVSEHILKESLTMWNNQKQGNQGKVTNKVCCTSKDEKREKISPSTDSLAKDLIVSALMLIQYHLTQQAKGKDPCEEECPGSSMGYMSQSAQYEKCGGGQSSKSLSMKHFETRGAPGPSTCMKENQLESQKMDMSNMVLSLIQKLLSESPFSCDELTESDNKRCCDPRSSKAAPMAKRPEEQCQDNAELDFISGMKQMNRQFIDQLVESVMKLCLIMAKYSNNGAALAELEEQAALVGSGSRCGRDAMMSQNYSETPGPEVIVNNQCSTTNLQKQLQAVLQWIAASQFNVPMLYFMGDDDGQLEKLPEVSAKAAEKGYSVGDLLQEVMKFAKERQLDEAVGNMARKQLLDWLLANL
UniProt Q924X7: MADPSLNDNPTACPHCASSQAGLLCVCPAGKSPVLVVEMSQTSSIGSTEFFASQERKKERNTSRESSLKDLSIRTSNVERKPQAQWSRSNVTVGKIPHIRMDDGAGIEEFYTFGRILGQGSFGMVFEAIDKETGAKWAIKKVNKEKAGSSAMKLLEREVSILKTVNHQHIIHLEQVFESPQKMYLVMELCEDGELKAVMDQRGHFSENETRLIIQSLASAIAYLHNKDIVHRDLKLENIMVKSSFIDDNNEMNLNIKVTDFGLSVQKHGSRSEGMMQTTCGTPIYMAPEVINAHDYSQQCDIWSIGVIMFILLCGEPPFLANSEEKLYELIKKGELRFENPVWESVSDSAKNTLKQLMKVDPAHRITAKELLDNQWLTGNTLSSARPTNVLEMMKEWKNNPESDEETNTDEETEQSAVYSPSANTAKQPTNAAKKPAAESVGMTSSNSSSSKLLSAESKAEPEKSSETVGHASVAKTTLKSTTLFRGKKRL

Experiments:
[1] = target: FLAG-AKAP4-FLAG (A-kinase anchoring protein 4, FLAG-tagged at both ends) (UniProt Q60662); assay: co-IP; AKAP3-FLAG or FLAG-AKAP4-FLAG co-expressed with STK33-HA or STK33 KI-HA in HEK293T cells; lysis in Pierce IP lysis buffer; primary antibody overnight at 4 °C; protein A/G magnetic beads or G1 affinity resin; washes in PBST (0.5% Triton X-100); Western blot; reciprocal for STK33-HA
[2] = target: T1, AKAP3-FLAG (A-kinase anchoring protein 3, FLAG-tagged) (UniProt O88987); assay: as above
T1 sequence: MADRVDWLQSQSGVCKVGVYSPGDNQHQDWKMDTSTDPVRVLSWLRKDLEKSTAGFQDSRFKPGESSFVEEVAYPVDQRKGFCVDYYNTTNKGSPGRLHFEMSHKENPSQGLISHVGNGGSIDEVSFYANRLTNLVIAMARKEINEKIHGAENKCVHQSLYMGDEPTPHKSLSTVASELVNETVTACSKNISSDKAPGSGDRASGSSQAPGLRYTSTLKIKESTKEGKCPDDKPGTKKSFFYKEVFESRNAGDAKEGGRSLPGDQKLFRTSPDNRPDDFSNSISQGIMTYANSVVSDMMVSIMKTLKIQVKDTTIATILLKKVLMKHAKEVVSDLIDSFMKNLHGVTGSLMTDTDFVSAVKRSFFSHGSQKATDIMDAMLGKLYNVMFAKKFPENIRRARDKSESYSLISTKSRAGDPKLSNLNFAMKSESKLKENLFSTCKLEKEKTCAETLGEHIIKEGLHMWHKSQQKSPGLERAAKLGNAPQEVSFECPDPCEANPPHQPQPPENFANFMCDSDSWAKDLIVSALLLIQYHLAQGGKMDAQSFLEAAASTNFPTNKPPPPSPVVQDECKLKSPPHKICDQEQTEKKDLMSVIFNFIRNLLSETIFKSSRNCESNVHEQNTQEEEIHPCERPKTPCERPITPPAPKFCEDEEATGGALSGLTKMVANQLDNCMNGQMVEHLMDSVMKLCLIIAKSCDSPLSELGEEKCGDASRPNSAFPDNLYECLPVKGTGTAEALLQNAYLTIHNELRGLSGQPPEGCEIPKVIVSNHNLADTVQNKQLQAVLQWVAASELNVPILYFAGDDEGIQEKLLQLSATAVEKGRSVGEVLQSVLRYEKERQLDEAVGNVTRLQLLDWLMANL

| Substance | binding [1] | binding [2] |
| --- | --- | --- |
| STK33-HA (serine/threonine kinase 33, HA-tagged) (from UniProt Q924X7 1-491) (enzyme) | binds | – |
| STK33 KI-HA (C-terminally truncated STK33 as expressed in Stk33 KI/KI mice, HA-tagged) (domain or fragment) | – | binds |
